Reference: the supplement of paper PMC10849652
This is one part of the list.

Chains of the proteins cited; added tags and fusions are not shown. Lines headed by an entry give the natural chain unless they say otherwise; changes in a name come on top.
UniProt Q9GZT6: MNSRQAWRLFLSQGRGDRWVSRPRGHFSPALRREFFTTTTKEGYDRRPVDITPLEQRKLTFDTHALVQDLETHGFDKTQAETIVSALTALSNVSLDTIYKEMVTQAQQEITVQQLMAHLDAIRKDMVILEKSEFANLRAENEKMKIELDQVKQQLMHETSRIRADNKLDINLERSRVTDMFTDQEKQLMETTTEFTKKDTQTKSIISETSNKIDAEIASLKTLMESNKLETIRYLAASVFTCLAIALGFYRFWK
UniProt P49368: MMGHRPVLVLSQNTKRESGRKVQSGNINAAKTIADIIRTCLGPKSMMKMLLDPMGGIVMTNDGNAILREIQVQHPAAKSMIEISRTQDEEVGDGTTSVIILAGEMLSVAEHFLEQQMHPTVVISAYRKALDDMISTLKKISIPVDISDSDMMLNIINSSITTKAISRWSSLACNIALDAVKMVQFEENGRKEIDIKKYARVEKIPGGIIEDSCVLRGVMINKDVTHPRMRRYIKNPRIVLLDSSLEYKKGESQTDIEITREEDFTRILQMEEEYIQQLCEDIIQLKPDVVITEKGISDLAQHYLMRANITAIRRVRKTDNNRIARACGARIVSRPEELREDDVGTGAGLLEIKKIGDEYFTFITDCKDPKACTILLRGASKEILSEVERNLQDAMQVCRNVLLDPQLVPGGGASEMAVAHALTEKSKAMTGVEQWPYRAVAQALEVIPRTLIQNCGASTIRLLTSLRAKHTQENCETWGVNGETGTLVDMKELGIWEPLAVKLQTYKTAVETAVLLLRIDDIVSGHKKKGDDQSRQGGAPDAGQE
UniProt Q3V6T2: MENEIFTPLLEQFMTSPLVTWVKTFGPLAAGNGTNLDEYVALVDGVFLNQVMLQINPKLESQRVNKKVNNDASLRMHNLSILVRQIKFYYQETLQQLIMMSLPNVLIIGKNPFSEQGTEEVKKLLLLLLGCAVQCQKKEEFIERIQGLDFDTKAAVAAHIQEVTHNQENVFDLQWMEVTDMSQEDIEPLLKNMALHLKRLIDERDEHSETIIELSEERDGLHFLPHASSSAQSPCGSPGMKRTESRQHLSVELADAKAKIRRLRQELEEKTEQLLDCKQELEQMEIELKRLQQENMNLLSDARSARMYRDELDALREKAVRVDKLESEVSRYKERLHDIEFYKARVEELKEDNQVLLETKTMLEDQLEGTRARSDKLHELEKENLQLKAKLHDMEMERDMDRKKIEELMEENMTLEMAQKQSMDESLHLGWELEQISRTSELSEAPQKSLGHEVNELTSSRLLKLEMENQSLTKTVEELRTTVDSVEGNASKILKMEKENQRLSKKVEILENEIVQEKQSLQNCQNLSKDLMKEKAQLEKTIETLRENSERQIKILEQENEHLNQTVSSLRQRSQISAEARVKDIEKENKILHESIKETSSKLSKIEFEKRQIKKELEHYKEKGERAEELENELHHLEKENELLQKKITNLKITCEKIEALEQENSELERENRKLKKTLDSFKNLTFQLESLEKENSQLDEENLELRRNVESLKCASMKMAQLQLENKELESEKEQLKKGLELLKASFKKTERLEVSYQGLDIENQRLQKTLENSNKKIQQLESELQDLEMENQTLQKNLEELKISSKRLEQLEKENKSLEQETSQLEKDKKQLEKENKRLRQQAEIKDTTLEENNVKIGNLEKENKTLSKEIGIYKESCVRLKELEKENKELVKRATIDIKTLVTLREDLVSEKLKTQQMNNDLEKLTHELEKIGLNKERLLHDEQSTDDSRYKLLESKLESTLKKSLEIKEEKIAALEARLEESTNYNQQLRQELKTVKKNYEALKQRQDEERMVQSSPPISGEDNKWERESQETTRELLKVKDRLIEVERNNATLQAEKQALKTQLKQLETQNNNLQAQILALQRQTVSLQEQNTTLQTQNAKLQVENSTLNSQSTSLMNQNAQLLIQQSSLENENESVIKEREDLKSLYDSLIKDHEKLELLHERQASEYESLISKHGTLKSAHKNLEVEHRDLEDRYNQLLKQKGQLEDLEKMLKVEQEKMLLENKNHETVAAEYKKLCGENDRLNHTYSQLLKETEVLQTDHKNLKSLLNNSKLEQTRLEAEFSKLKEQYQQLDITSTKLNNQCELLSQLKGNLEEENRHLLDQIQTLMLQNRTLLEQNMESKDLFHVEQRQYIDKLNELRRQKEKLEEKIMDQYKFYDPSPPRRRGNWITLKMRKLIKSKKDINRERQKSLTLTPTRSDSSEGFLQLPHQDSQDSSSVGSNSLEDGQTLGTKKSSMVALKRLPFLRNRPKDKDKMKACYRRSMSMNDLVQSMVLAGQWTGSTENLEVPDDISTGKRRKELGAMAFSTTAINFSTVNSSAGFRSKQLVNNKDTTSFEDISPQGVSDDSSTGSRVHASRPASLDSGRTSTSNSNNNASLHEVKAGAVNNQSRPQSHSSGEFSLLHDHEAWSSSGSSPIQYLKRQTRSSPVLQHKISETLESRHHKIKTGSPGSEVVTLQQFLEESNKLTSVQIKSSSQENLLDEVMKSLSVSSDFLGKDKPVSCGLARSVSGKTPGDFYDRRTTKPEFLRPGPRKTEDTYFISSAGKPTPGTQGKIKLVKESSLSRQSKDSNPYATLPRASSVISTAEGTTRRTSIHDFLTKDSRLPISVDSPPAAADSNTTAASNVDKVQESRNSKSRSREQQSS
UniProt Q5T0F9: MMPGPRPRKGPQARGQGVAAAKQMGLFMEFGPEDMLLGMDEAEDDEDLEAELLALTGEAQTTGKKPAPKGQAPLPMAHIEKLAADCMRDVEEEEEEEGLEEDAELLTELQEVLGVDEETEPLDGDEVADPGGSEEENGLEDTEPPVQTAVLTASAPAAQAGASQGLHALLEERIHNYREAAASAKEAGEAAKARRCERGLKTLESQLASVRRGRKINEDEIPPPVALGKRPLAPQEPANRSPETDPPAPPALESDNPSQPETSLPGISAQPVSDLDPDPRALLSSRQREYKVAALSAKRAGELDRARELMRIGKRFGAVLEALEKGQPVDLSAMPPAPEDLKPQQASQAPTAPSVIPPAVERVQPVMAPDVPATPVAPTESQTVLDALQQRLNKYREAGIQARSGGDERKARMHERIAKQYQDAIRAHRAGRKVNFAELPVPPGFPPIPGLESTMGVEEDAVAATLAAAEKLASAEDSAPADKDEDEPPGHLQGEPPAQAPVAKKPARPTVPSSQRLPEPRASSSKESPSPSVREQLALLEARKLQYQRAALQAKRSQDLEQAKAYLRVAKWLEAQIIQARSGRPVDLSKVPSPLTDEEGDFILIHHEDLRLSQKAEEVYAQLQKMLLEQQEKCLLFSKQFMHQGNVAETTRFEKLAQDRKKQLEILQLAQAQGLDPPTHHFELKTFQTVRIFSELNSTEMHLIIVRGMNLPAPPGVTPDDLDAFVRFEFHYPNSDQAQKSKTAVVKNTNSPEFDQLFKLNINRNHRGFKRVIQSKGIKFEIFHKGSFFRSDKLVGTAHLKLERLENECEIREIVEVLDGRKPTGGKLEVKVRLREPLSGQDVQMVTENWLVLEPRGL
UniProt P30281: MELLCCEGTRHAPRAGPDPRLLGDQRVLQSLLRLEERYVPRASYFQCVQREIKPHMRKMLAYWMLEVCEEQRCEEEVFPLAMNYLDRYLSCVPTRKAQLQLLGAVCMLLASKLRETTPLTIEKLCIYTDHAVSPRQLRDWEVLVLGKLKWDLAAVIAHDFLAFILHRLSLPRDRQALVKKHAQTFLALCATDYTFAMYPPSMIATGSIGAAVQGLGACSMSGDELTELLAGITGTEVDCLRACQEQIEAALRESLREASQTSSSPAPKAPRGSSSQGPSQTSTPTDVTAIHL
UniProt Q9H0W5: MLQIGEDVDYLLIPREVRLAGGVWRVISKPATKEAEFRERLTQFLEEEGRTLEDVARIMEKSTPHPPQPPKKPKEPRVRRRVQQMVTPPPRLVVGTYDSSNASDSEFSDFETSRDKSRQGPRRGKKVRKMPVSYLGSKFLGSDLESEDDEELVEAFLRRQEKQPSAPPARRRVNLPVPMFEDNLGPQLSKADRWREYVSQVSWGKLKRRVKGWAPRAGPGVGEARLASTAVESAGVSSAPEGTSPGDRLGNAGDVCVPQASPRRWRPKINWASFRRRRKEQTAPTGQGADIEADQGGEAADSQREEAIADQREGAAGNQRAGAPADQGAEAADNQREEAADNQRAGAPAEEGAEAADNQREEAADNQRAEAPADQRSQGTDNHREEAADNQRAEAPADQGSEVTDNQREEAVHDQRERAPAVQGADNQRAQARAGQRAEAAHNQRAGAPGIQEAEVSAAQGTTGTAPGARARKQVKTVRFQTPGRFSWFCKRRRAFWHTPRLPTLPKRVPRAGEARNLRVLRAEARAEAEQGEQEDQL
UniProt P50990: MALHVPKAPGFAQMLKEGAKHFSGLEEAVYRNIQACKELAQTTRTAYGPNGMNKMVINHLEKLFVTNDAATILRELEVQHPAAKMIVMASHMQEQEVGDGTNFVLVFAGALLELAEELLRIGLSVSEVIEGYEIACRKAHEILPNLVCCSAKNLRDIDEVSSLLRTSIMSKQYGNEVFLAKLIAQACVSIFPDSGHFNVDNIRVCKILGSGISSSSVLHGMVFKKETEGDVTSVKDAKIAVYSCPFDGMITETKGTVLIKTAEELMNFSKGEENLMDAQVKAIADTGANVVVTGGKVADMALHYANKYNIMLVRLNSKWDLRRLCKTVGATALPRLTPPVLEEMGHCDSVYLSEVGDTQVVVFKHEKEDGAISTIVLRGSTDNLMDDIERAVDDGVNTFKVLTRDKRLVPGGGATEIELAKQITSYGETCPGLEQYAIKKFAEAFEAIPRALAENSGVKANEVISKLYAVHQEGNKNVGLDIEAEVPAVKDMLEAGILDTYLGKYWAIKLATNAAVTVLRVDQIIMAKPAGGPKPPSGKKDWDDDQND
UniProt Q2TAC2: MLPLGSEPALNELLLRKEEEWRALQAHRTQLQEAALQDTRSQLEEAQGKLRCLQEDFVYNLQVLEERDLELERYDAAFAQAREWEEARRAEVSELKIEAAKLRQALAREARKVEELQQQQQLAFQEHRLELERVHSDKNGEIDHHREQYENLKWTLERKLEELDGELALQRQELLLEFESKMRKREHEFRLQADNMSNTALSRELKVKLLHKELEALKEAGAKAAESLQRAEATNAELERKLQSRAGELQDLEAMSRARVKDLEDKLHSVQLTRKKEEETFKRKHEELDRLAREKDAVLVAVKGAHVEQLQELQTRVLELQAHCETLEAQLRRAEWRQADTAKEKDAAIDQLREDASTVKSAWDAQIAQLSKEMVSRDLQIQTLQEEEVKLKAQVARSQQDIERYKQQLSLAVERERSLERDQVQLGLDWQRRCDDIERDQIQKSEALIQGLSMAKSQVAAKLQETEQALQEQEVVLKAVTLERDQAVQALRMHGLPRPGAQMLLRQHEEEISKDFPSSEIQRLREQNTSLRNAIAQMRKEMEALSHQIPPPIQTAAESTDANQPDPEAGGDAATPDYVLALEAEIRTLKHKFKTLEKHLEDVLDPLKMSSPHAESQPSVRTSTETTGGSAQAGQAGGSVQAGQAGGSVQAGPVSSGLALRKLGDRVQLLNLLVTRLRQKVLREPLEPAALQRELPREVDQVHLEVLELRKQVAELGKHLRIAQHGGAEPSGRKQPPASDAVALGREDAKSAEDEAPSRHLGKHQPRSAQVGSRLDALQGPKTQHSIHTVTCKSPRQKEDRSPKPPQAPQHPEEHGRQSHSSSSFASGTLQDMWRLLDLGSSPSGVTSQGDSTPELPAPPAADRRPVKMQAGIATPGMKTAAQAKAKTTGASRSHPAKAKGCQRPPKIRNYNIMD
UniProt Q9H257: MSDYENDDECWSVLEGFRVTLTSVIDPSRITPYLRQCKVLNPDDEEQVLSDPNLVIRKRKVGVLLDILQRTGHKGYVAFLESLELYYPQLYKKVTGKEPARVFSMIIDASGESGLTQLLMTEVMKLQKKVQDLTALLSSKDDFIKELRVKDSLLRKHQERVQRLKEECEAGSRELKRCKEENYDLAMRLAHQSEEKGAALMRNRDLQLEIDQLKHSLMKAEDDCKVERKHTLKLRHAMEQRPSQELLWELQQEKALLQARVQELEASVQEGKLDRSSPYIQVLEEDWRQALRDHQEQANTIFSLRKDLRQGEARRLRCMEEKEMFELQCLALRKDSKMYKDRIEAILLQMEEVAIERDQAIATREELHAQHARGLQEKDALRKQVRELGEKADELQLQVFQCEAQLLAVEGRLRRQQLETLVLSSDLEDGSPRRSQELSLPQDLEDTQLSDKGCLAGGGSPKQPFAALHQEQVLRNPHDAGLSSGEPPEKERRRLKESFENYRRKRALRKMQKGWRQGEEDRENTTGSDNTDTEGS
UniProt Q9P031: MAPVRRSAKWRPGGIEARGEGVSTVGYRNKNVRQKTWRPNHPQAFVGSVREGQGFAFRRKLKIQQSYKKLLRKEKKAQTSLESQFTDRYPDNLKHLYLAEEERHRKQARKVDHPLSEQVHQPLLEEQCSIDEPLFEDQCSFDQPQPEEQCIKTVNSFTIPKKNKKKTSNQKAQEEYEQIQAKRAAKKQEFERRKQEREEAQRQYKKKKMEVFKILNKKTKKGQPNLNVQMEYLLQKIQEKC

Legend:
Test in all cases: log2 fold change, soluble protein after heating vs DMSO (PISA); higher = thermal stabilisation; K562 lysate, 10 uM; active = over 0.2 and 3.5 SD of the protein, either way, in both replicates (recomputed)
[1] = compound: Cc1cn(-c2cc(NC(=O)c3ccc(C)c(Nc4nccc(-c5cccnc5)n4)c3)cc(C(F)(F)F)c2)cn1 [nilotinib]
In short: (§1)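 To prepare the extract, K562 pellets were dounce-homogenised in PBS pH 7.4 with 1 mM MgCl2, giving crude material at 1 mg/mL protein. This was treated with 10 μM compound for 30 min, then heated in aliquots for 3 min over 48°C-58°C before pooling and addition of NP-40 to 0.5% at 4°C. Centrifugation at 21,000xg for 90 min left soluble protein in the supernatant, which TMTpro 16plex LC-MS/MS quantified with equalised channel sums. Results are log-two fold changes in thermal stability compared with solvent controls, from duplicates.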

[2] = compound: Cc1nc(Nc2n[nH]c3c2CN(C(=O)N[C@H](CN(C)C)c2ccccc2)C3(C)C)c2sccc2n1
In short: as §1

[3] = compound: Cc1nc(Nc2ncc(C(=O)Nc3c(C)cccc3Cl)s2)cc(N2CCN(CCO)CC2)n1 [dasatinib]
In short: as §1

[4] = compound: Cc1ncc(-c2ccnc(Nc3ccc(S(C)(=O)=O)cc3)n2)n1C(C)C
In short: as §1

[5] = compound: Cn1cc(-c2ccc3c(c2)CCN3C(=O)Cc2cccc(C(F)(F)F)c2)c2c(N)ncnc21
In short: as §1

[6] = compound: Cn1cc(CNCC2CCN(c3ncc(C(=O)NO)cn3)CC2)c2ccccc21 [quisinostat]
In short: as §1

[7] = compound: Cn1cncc1[C@@](N)(c1ccc(Cl)cc1)c1ccc2c(c1)c(-c1cccc(Cl)c1)cc(=O)n2C [tipifarnib]
In short: as §1

[8] = compound: NC(=O)Nc1cc(-c2cccc(F)c2)sc1C(=O)N[C@H]1CCCNC1
In short: as §1

[9] = compound: NC(=O)c1cnc(N[C@@H]2CCCC[C@@H]2N)nc1Nc1cccc(-n2nccn2)c1
In short: as §1

[10] = compound: NC1(c2ccc(-c3nc4ccn5c(=O)[nH]nc5c4cc3-c3ccccc3)cc2)CCC1
In short: as §1

[11] = compound: NCC(=O)Nc1ccc(-n2nc(C(F)(F)F)cc2-c2ccc3c(ccc4ccccc43)c2)cc1
In short: as §1

[12] = compound: O=C(CCCCCCC(=O)Nc1ccccc1)NO [vorinostat]
In short: as §1

[13] = compound: O=C(O)c1ccc2c(c1)nc(Nc1cccc(Cl)c1)c1ccncc12 [silmitasertib]
In short: as §1

[14] = compound: O=C1NC(=O)C(c2cnc3ccccn23)=C1c1cn2c3c(cc(F)cc13)CN(C(=O)N1CCCCC1)CC2
In short: as §1

[15] = compound: c1cn2cc(-c3ccc4cn[nH]c4c3)nc(Nc3ccc(N4CCOCC4)cc3)c2n1 [entospletinib]
In short: as §1

Target | log2 fold change [1] | log2 fold change [2] | log2 fold change [3] | log2 fold change [4] | log2 fold change [5] | log2 fold change [6] | log2 fold change [7] | log2 fold change [8] | log2 fold change [9] | log2 fold change [10] | log2 fold change [11] | log2 fold change [12] | log2 fold change [13] | log2 fold change [14] | log2 fold change [15]
CD58 (UniProt P19256) | inactive: -0.061 | inactive: 0.008 | inactive: 0.076 | inactive: 0.027 | inactive: 0.062 | inactive: 0.018 | inactive: 0.015 | inactive: -0.015 | inactive: 0.001 | inactive: 0.024 | inactive: -0.053 | inactive: 0.023 | inactive: -0.029 | inactive: -0.049 | inactive: -0.005
CCDC90B (UniProt Q9GZT6) | inactive: -0.017 | inactive: 0.022 | inactive: 0.008 | inactive: 0.044 | inactive: 0.006 | inactive: 0 | inactive: -0.035 | inactive: -0.038 | inactive: -0.015 | inactive: 0.003 | inactive: -0.058 | inactive: 0.145 | inactive: -0.022 | inactive: -0.021 | inactive: -0.22
CCDC28A (UniProt Q8IWP9) | inactive: -0.035 | inactive: -0.075 | inactive: 0.055 | inactive: 0.013 | inactive: -0.017 | inactive: -0.021 | inactive: 0.138 | inactive: -0.005 | inactive: -0.042 | inactive: 0 | inactive: 0.036 | inactive: 0.151 | inactive: -0.068 | inactive: -0.009 | inactive: -0.02
CCT3 (UniProt P49368) | inactive: 0.006 | inactive: 0.01 | inactive: 0.048 | inactive: 0.007 | inactive: 0.014 | inactive: 0.023 | inactive: -0.012 | inactive: -0.009 | inactive: -0.006 | inactive: 0.009 | inactive: 0.013 | inactive: 0.049 | inactive: -0.006 | inactive: 0.001 | inactive: 0.039
CD44 (UniProt P16070) | inactive: 0.058 | inactive: 0.005 | – | inactive: 0.102 | – | – | inactive: -0.079 | – | – | inactive: 0.087 | – | inactive: -0.005 | inactive: 0.055 | – | inactive: 0.041
CCDC88A isoform 2 (UniProt Q3V6T2) | inactive: -0.304 | inactive: 0.095 | – | inactive: 0.057 | – | – | inactive: 0.028 | – | – | – | – | – | – | – | –
CCDC13 (UniProt Q8IYE1) | inactive: -0.036 | inactive: 0.034 | inactive: -0.063 | inactive: 0.167 | inactive: -0.044 | inactive: -0.831 | inactive: 0.101 | inactive: -0.195 | inactive: 0 | – | inactive: 0.274 | – | – | inactive: 0.188 | inactive: -0.055
CCNT2 (UniProt O60583) | inactive: -0.165 | inactive: -0.131 | inactive: 0.066 | inactive: 0.114 | inactive: 0.037 | inactive: 0 | inactive: -0.053 | inactive: 0.141 | inactive: 0.105 | – | inactive: 0.035 | – | – | inactive: -0.031 | inactive: 0.059
CCDC50 (UniProt Q8IVM0) | inactive: 0.108 | inactive: 0.213 | – | inactive: -0.099 | – | inactive: 0.231 | inactive: -0.03 | inactive: 0.001 | inactive: 0.043 | inactive: 0.072 | – | inactive: -0.01 | inactive: -0.029 | inactive: 0.076 | inactive: 0.048
CBFB (UniProt Q13951) | inactive: 0.05 | inactive: -0.014 | inactive: 0.017 | inactive: 0.007 | inactive: -0.012 | inactive: -0.045 | inactive: -0.008 | inactive: 0.007 | inactive: -0.01 | inactive: 0.028 | – | inactive: -0.005 | inactive: 0.025 | inactive: -0.041 | inactive: -0.032
CC2D1B isoform 2 (UniProt Q5T0F9) | inactive: -0.021 | inactive: 0.026 | inactive: 0.023 | inactive: -0.012 | inactive: -0.025 | inactive: -0.059 | inactive: 0.019 | inactive: 0.001 | inactive: 0.022 | inactive: 0.007 | inactive: 0 | inactive: -0.023 | inactive: -0.004 | inactive: -0.004 | inactive: -0.035
CCNL1 (UniProt Q9UK58) | inactive: -0.069 | inactive: 0.066 | – | inactive: -0.023 | – | inactive: 0.033 | inactive: 0.031 | inactive: 0.009 | inactive: 0.033 | – | – | – | – | inactive: -0.041 | inactive: -0.059
CCND2 (UniProt P30279) | inactive: 0.094 | inactive: -0.001 | inactive: 0.015 | inactive: -0.081 | inactive: 0.069 | inactive: -0.03 | inactive: 0.028 | inactive: 0.044 | inactive: 0.017 | inactive: -0.078 | – | inactive: 0.206 | inactive: -0.024 | inactive: -0.005 | –
CCND3 (UniProt P30281) | inactive: -0.061 | inactive: -0.015 | inactive: -0.08 | inactive: 0.042 | inactive: 0.137 | inactive: -0.05 | inactive: -0.062 | inactive: -0.003 | – | inactive: -0.057 | – | inactive: -0.051 | inactive: 0.017 | inactive: 0.086 | inactive: 0.062
CASTOR2 (UniProt A6NHX0) | inactive: 0.06 | inactive: -0.01 | inactive: 0.012 | inactive: 0.038 | inactive: 0.007 | inactive: 0.067 | inactive: -0.033 | inactive: -0.03 | inactive: 0.019 | inactive: 0.019 | inactive: 0.169 | inactive: 0.039 | inactive: -0.034 | inactive: -0.023 | inactive: 0.036
CBX3 (UniProt B8ZZ43) | inactive: 0.064 | inactive: -0.102 | – | inactive: -0.178 | – | inactive: 0.005 | inactive: 0.327 | inactive: -0.063 | – | – | – | – | – | inactive: 0.178 | –
CASS4 (UniProt Q9NQ75) | inactive: 0.008 | inactive: 0.116 | inactive: -0.097 | inactive: 0.128 | inactive: -0.075 | inactive: -0.164 | inactive: -0.059 | inactive: 0.181 | – | inactive: -0.127 | inactive: 0.142 | inactive: 0 | inactive: -0.111 | inactive: 0.134 | inactive: -0.071
CCDC8 (UniProt Q9H0W5) | inactive: 0.066 | inactive: -0.138 | inactive: 0.025 | inactive: 0.058 | inactive: -0.033 | – | inactive: -0.349 | – | – | – | – | – | – | – | –
CARHSP1 (UniProt H3BNU9) | inactive: -0.196 | inactive: 0.149 | – | inactive: 0.238 | – | – | inactive: 0.108 | – | inactive: -0.059 | – | – | – | – | – | –
CCDC138 (UniProt Q96M89) | inactive: 0.034 | inactive: 0.03 | – | inactive: -0.036 | – | – | inactive: -0.01 | – | – | – | – | – | – | – | –
CD33 (UniProt P20138) | inactive: -0.005 | inactive: 0.006 | inactive: 0.082 | inactive: -0.066 | inactive: 0.008 | inactive: 0.261 | inactive: -0.131 | inactive: -0.263 | inactive: -0.031 | – | – | – | – | inactive: -0.32 | –
CCT8 (UniProt P50990) | inactive: 0.002 | inactive: -0.013 | inactive: -0.002 | inactive: -0.001 | inactive: -0.016 | inactive: 0.013 | inactive: 0.015 | inactive: -0.015 | inactive: -0.008 | inactive: 0.005 | inactive: 0.007 | inactive: 0.022 | inactive: -0.011 | inactive: 0 | inactive: 0.008
CCDC57 (UniProt Q2TAC2) | inactive: 0.044 | inactive: -0.044 | inactive: -0.037 | inactive: 0.015 | inactive: -0.049 | – | inactive: -0.005 | – | inactive: -0.025 | – | inactive: 0.006 | – | – | – | inactive: -0.026
CCT3 (UniProt E9PM09) | inactive: 0.08 | inactive: -0.129 | inactive: 0.01 | inactive: 0.238 | inactive: 0.318 | – | inactive: 0.037 | – | inactive: -0.061 | inactive: 0.277 | inactive: 0.292 | inactive: -0.381 | inactive: -0.097 | – | inactive: 0.089
CCHCR1 isoform 2 (UniProt Q8TD31) | inactive: -0.156 | inactive: 0.01 | – | inactive: -0.195 | – | inactive: 0.053 | inactive: -0.347 | inactive: 0.095 | – | inactive: 0.09 | inactive: -0.022 | inactive: -0.004 | inactive: -0.064 | inactive: 0.032 | inactive: -0.079
CCRL2 isoform 2 (UniProt O00421) | inactive: 0.164 | inactive: -0.141 | – | inactive: -0.069 | – | – | inactive: -0.076 | – | – | inactive: -0.152 | – | inactive: 0.137 | inactive: -0.225 | – | –
CARD9 (UniProt Q9H257) | inactive: 0.047 | inactive: -0.037 | inactive: -0.017 | inactive: 0.028 | inactive: 0 | inactive: -0.032 | inactive: -0.035 | inactive: 0.005 | inactive: 0.034 | inactive: -0.007 | inactive: 0.008 | active: -0.217 | inactive: 0.011 | inactive: 0.014 | inactive: -0.038
CCDC59 (UniProt Q9P031) | inactive: -0.004 | inactive: -0.124 | inactive: 0.041 | inactive: 0.01 | inactive: -0.025 | inactive: -0.077 | inactive: 0.104 | inactive: 0.044 | inactive: -0.001 | – | inactive: 0.014 | – | – | inactive: -0.003 | inactive: 0.09

A few values from the results shown.
Entry for CCDC28A (UniProt Q8IWP9) under log2 fold change [14]: inactive: -0.009
Entry for CCT3 (UniProt P49368) under log2 fold change [5]: inactive: 0.014

Rewritten comma-delimited: entries from further up.
Target,log2 fold change [1],log2 fold change [2],log2 fold change [3],log2 fold change [4],log2 fold change [5],log2 fold change [6],log2 fold change [7],log2 fold change [8],log2 fold change [9],log2 fold change [10],log2 fold change [11],log2 fold change [12],log2 fold change [13],log2 fold change [14],log2 fold change [15]
CCDC8 (UniProt Q9H0W5),inactive: 0.066,inactive: -0.138,inactive: 0.025,inactive: 0.058,inactive: -0.033,–,inactive: -0.349,–,–,–,–,–,–,–,–
CCT3 (UniProt E9PM09),inactive: 0.08,inactive: -0.129,inactive: 0.01,inactive: 0.238,inactive: 0.318,–,inactive: 0.037,–,inactive: -0.061,inactive: 0.277,inactive: 0.292,inactive: -0.381,inactive: -0.097,–,inactive: 0.089
